The results in this text go back to US11111238B2, “Coumarin derivatives, processes for their preparation and uses thereof for the treatment of cancer” (Lead Discovery Center GmbH, priority 2017, dated 2021).

Protein sequences, listed by entry. Tags and fused reporters are not part of them. Residues count along the entry.
UniProt Q8BKF1, 42-1207 limits assumed: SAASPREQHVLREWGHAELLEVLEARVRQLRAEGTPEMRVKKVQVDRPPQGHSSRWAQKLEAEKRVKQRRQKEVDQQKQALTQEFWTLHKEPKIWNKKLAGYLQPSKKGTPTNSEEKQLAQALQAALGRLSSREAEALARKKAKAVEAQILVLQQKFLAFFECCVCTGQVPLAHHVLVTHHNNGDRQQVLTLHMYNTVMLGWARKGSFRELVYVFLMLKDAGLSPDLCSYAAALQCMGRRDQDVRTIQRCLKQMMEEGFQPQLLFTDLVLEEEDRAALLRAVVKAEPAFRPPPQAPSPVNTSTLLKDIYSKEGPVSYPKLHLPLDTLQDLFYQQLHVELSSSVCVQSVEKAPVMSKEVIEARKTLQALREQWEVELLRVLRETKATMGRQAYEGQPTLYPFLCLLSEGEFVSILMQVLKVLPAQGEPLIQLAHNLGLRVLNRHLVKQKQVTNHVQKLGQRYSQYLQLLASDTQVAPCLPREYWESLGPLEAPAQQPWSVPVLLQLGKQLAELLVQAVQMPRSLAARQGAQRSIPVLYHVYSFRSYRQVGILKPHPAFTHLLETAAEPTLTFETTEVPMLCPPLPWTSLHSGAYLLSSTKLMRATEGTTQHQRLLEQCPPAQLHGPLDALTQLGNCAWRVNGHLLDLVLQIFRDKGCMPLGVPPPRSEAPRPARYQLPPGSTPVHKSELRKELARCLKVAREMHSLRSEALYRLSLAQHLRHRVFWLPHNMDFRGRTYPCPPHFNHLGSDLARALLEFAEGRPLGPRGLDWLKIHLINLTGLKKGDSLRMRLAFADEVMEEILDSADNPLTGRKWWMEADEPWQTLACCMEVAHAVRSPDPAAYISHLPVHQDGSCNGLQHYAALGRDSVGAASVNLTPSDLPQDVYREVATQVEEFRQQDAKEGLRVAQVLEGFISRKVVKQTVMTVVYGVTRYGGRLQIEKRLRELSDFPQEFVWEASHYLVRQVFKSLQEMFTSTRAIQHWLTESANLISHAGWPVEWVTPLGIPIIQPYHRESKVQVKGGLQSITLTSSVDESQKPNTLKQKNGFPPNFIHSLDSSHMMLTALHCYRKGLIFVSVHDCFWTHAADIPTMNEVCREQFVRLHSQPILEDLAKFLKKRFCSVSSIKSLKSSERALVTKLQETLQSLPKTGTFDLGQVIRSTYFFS

The structures given here were assigned with low confidence; some may be wrong.

The target in this test is mitochondrial RNA-polymerase (POLRMT) (Mus musculus, UniProt Q8BKF1). Put plainly: Homogeneous TR-FRET assay for mitochondrial transcription activity. The settings on record: homogeneous TR-FRET assay according to Example 4; activity class. An excerpt:
The TR-FRET assay was basically conducted as described in WO2016/193,231A1, especially as described in example 1 (hereby incorporated by reference). With respect to the background of the mitochondrial transcription it is referred to Falkenberg et al. (2002) and Posse et al. (Posse et al., 2015). The method monitors the activity of mitochondrial RNA-polymerase via detection of the formation of its product, a 407 bp long RNA sequence. Detection of the product is facilitated by hybridization of two DNA-oligonucleotide probes to specific and adjacent sequences within the RNA product sequence. Upon annealing of the probes, two fluorophores that are coupled directly to an acceptor nucleotide probe (ATT0647, 5′) or introduced via a coupled streptavidin interacting with a biotinylated donor nucleotide probe on the other side (Europium cryptate, 3′) are brought into sufficient proximity to serve as a fluorescence-donor-acceptor pair as generally described in Walters and Namchuk (2003). Thus, a FRET signal at 665 nm is generated upon excitation at 340 nm.
Briefly, the protocol described here was applied for screening and activity determination in a low-volume 384-well microtiter plate with non-binding surface. For high-throughput application in the 1536-well microtiter plate format, volumes of the reagent mixes were adjusted, maintaining the volumetric ratio. […]
(In general: TR-FRET usually uses a lanthanide donor and a delayed reading to cut background.)

On to `Cc1sccc1-c1cc(=O)oc2cc(O[C@H](C)C(=O)N3CCCCC3)ccc12`, for which the mitochondrial transcription activity entry is reported as “+ +”.

In the case of `Cc1sccc1-c1cc(=O)oc2cc(O[C@H](C)C(=O)N3CCCC(C(=O)O)C3)ccc12` (mixture of isomers), the mitochondrial transcription activity result is listed as “+ +”.
